# Out of some 580,000 compounds screened, about 6,100 (1.1%) were called active. This list was built around the results that the source calls inconclusive (neither active nor inactive); the mix of calls is not that of the screen. Calls follow the shape of the dose curve; as a rule, active = well fitted inhibition curve with a large enough effect; inconclusive = small, poorly fitted or top-dose-only effect, or another doubt; inactive = no such curve, though single readings can be large or run the other way. A potency beside an inconclusive call is a rough fit, not a confirmed value.
# Amino acid sequences for entries named in this document (tags omitted). A change or cut given only in a name is not applied to a line headed by its entry.
# UniProt P18054: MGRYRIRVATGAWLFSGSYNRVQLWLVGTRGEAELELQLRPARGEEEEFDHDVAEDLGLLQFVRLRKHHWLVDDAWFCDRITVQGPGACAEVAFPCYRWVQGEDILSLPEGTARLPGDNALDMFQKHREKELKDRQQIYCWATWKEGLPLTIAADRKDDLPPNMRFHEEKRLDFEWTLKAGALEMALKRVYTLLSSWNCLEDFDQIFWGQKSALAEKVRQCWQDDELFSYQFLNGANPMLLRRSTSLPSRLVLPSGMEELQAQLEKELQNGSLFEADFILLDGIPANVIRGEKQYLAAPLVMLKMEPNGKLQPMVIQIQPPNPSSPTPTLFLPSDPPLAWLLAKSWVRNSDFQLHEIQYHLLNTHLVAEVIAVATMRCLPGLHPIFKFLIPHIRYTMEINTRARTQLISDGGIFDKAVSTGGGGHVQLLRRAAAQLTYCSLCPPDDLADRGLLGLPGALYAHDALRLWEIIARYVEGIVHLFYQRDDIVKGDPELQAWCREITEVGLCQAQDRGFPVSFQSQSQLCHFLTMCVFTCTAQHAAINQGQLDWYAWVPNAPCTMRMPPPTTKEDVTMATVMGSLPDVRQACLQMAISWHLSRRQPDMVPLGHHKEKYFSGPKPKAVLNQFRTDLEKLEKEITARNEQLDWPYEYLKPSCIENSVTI
# Target: Polyunsaturated fatty acid lipoxygenase ALOX12 (Homo sapiens) (UniProt P18054)
# Assay: Primary qHTS assay for inhibitors of human arachidonate 12S-lipoxygenase (ALOX12): Round 2
# Details: purified 12hLO, xylenol orange hydroperoxide absorbance; activity change, negative = inhibition: at 108 µM (top of the series) unless noted
# Procedure, shortened: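 Purified human 12hLO at 150 nM in 25 mM Hepes, 0.01% Triton X-100, pH 7.0, preincubated 15 min at room temperature with compound. Reaction started with 40 uM arachidonic acid, 30 min at room temperature. Hydroperoxide measured by Fe-xylenol orange, 573/405 nm absorbance ratio.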
# % is scaled to controls: 0 for no effect and ±100 for the full control effect; potency is read from the fitted curve at half-maximal effect.
SMILES,Potency,"activity change, negative = inhibition"
O=S(=O)(NCc1csc(-c2ccccc2)n1)c1ccc(Cl)s1,"inconclusive: 112 µM [inhibitor, single point]",–
COc1ccc(CN(C(=O)c2ccco2)c2ccc(CC(=O)NC(C)c3ccccc3)cc2)cc1 (stereo not given),"inconclusive: 14.1 µM [inhibitor, full curve]",–
COC(=O)Nc1ccc(CNCc2ccccn2)cc1,–,inactive: 7.38%
O=C(Cn1cc(C(F)(F)F)cc(Cl)c1=O)Nc1cc(C(F)(F)F)ccc1Cl,–,inactive: -13.4%
COCCn1c(Cc2ccccc2)n[nH]c1=S,"inconclusive: 44.7 µM [inhibitor, partial curve, poor fit]",–
COc1ccc(-n2c(=S)[nH]c3cc(C(=O)NCc4ccccc4)ccc3c2=O)c(OC)c1,"inconclusive: 15.8 µM [inhibitor, full curve, poor fit]",–
Cc1nc2ccc(Br)cc2c(-c2ccccc2)c1C(=O)O,"inconclusive: 39.8 µM [inhibitor, single point]",–
CN(Cc1ccc(-c2ccccc2)cc1)C(=O)c1ccc(F)cc1,–,inactive: 7.68% [at 176 µM]
O=C(Nc1ccccc1)Nc1ccc(F)c([N+](=O)[O-])c1,"inconclusive: 56.2 µM [inhibitor, partial curve, poor fit]",–
N#Cc1c(N)n(-c2cccc(Cl)c2)c2nc3ccccc3nc12,"inconclusive: 44.7 µM [inhibitor, partial curve, poor fit]",–
CCCNC(=O)C1(C)CCCN(Cc2ccc3ccccc3c2)C1 (stereo not given),–,inactive: 2.85%
Cc1c(C(C)C)c(=O)n(-c2ccc(S(=O)(=O)N3CCOCC3)cc2)n1C,–,inactive: -4.95%
COc1ccc(NCc2cc3cc4c(cc3n(CC(=O)Nc3cc(C)cc(C)c3)c2=O)OCO4)cc1,–,inactive: -30.1%
CCOc1ccc(C(=O)N2CC(C(=O)NCCc3ccncc3)C3(CCOCC3)C2)cc1 (stereo not given),–,inactive: 41.1%
O=C(c1ccc(C(F)(F)F)cc1)N1CCC2(C1)C(=O)N(CCc1ccccc1)c1ccccc12 (stereo not given),"inconclusive: 50.1 µM [inhibitor, partial curve]",–
CCCNC(=O)CNC(=O)c1nn(Cc2ccccc2)c(=O)c2ccccc12,–,inactive: 7.31%
CCCCc1nc2cc(C(=O)NCCNc3nc(C)cc(=O)[nH]3)ccc2o1,–,inactive: 12%
CCOC(=O)COc1ccccc1C1C(C(=O)OC)=C(C)NC2=C1C(=O)c1ccccc12 (stereo not given),–,inconclusive: -30.7% [inhibitor]
CSc1nc(-c2ccco2)cc(C(F)(F)F)c1C#N,"inconclusive: 56.2 µM [inhibitor, partial curve, poor fit]",–
Nc1cc([N+](=O)[O-])ccc1N1C(=O)CCCC1=O,"inconclusive: 141 µM [inhibitor, single point]",–

# At a glance, some entries already given:
SMILES,Potency,"activity change, negative = inhibition"
N#Cc1c(N)n(-c2cccc(Cl)c2)c2nc3ccccc3nc12,"inconclusive: 44.7 µM [inhibitor, partial curve, poor fit]",–
CCCNC(=O)C1(C)CCCN(Cc2ccc3ccccc3c2)C1 (stereo not given),–,inactive: 2.85%

# — PubChem BioAssay AID1671190 (National Center for Advancing Translational Sciences (NCATS), 2021)
